In US11945784B2, “IRE1 small molecule inhibitors” (Cornell University, priority 2018, dated 2024):
At least one read-out could not be matched to a standard name with certainty.

Test system: 293T cells
Assay: Growth assay (cytotoxicity)
Assay type: cell-based
Conditions: 2 day incubation
Method: A growth assay is performed to evaluate the compounds disclosed in Table 1 for cytotoxicity. Briefly, 5,000,000 293T cells are resuspended in 18 mL of cDMEM for a final concentration of 277,777 cells/mL. 180 μL (50,000 cells) cDMEM was seeded per well in 96 well flat bottom plate, with some wells left unfilled. In a 96 well plate, […] cDMEM and 1 uL of any one of the compounds disclosed herein. 133.3 uL cDMEM is added to wells 1, 2, 3, 5, 6, 7, 9, 10, and 11 of row A. Wells are serially diluted with 66.7 uL (highest concentration on right, lowest on left) to the total concentrations shown below. 20 uL of each dilution is transferred in duplicate to the cells plated in the 96-well plate. The plate is then placed in a humidified chamber for a 2 day incubation, and then photographed (media is more yellow in wells with potent cell growth). Absorbance is then measured at […] (lower for more acidic media) and […] (higher for more acidic media).

## NC1CCC(Nc2ncc(/C=C/c3ccc(NS(=O)(=O)c4ccccc4Cl)c(F)c3)cn2)CC1 (centres unmarked) [Compound 3, N-(4-((E)-2-(2-(((1r,4r)-4-aminocyclohexyl)amino)pyrimidin-5-yl)vinyl)-2-fluorophenyl)-2-chlorobenzenesulfonamide]
  percentage growth at 5 uM: greater than 75%
Listed as compound 3
  percentage growth at 5 uM: greater than 35%
